PubChem BioAssay AID686938 | Drosophila RNAi Screening Center – 2013

Screen: 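Fly genes required for calcium entry once internal stores are emptied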 (primary screen)
System: Drosophila S2R+ cells
Knock-down reagent: long dsRNA against Drosophila genes, about 0.25 µg dsRNA per well, roughly 10,000 cells
Time to read-out: 5 days of knock-down before the calcium assay
Conditions: thapsigargin (SERCA pump blocker) to empty calcium stores; entry signal taken 4 min after adding it
Read-out: 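Per-well fluo-4 fluorescence in two replicates, unnormalised, measured in resting cells and 4 min after store depletion by the SERCA blocker thapsigargin; ratio of the two present in few wells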
Direction: calcium entry signal: higher = stronger calcium signal after store depletion; entry to resting ratio: higher = more calcium entry relative to resting level; resting calcium signal: higher = higher resting calcium signal
Call rule: 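Hit if the duplicate-averaged plate z-score for entry over resting signal is under −3; wells with weak total dye signal (Fmax z < −2) or more than 5 off-targets removed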
Meaning of the calls: active = strongly reduced calcium entry; inactive = no strong reduction
The deposit covers about 23,000 reagents; shown is an unselected part of those with a known target gene and a result. In the full data, 75 (0.33%) were called active. 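Raw plate signals without normalisation; calls rest on plate z-scores that were not deposited; ratio present for only 364 wells.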 Unmarked entries are inactive. Reagents against one gene are numbered here. Names joined by + are all predicted targets of the reagent. Not given: the dose of the treatment.

The first 7 entries, to show the layout:
gene | reagent | calcium entry signal, replicate 1 (fluorescence units) | calcium entry signal, replicate 2 (fluorescence units) | entry to resting ratio | resting calcium signal, replicate 1 (fluorescence units) | resting calcium signal, replicate 2 (fluorescence units)
CG17239 | 1 | 2.98e7 | 2.72e7 | – | 1.35e7 | 1.28e7
Src42A | 1 | 3.40e7 | – | – | 1.71e7 | –
Src42A | 2 | 3.91e7 | 4.55e7 | – | 1.99e7 | 2.01e7
CG43116 | 1 | 3.30e7 | 4.20e7 | – | 1.65e7 | 2.04e7
Arr1 | 1 | 5.03e7 | 3.50e7 | – | 2.05e7 | 1.50e7
mRpL54 | 1 | 3.39e7 | – | – | 1.66e7 | –
CG10931 | 1 | 3.78e7 | 4.71e7 | – | 1.80e7 | 2.29e7

Results, from the start:
gene | reagent | calcium entry signal, replicate 1 (fluorescence units) | calcium entry signal, replicate 2 (fluorescence units) | entry to resting ratio | resting calcium signal, replicate 1 (fluorescence units) | resting calcium signal, replicate 2 (fluorescence units)
CG17239 | 1 | 2.98e7 | 2.72e7 | – | 1.35e7 | 1.28e7
Src42A | 1 | 3.40e7 | – | – | 1.71e7 | –
Src42A | 2 | 3.91e7 | 4.55e7 | – | 1.99e7 | 2.01e7
CG43116 | 1 | 3.30e7 | 4.20e7 | – | 1.65e7 | 2.04e7
Arr1 | 1 | 5.03e7 | 3.50e7 | – | 2.05e7 | 1.50e7
mRpL54 | 1 | 3.39e7 | – | – | 1.66e7 | –
CG10931 | 1 | 3.78e7 | 4.71e7 | – | 1.80e7 | 2.29e7
CG10862 | 1 | 2.91e7 | 3.92e7 | – | 1.54e7 | 1.78e7
CG33640 | 1 | 3.57e7 | 4.93e7 | – | 1.85e7 | 2.05e7
CG11089 + CG31381 | 1 | 3.87e7 | 3.31e7 | – | 1.87e7 | 1.73e7
CG11089 + CG31381 | 2 | 4.93e7 | 4.22e7 | – | 2.38e7 | 1.95e7
CG12155 | 1 | 4.28e7 | 4.14e7 | – | 2.04e7 | 1.95e7
CG12155 | 2 | 4.14e7 | 2.71e7 | – | 1.88e7 | 1.43e7
Ocho | 1 | 4.09e7 | 6.18e7 | – | 2.08e7 | 2.54e7
CG12398 | 1 | 2.11e7 | 2.51e7 | – | 1.35e7 | 1.27e7
CG15641 | 1 | 2.78e7 | 3.43e7 | – | 1.45e7 | 1.53e7
CG14439 | 1 | 3.04e7 | 4.10e7 | – | 1.57e7 | 1.97e7
Mcad | 1 | 5.83e7 | 4.79e7 | – | 3.67e7 | 1.90e7
RNaseZ | 1 | 4.98e7 | 4.18e7 | – | 2.04e7 | 1.86e7
CG32318 + Klp61F + Psf1 | 1 | 1.59e7 | 4.09e7 | – | 1.02e7 | 2.29e7
CG10469 | 1 | 2.34e7 | 5.12e7 | – | 1.23e7 | 2.17e7
CG1737 | 1 | 4.68e7 | 2.41e7 | – | 2.26e7 | 1.39e7
dachs | 1 | 3.77e7 | 3.22e7 | – | 1.69e7 | 1.64e7
dachs | 2 | 4.65e7 | – | – | 2.31e7 | –
dachs | 3 | 4.39e7 | 6.89e7 | – | 2.04e7 | 2.77e7
E(var)3-9 | 1 | 5.03e7 | 3.33e7 | – | 2.46e7 | 1.84e7
E(var)3-9 | 2 | 3.22e7 | 4.26e7 | – | 1.65e7 | 1.79e7
l(1)sc | 1 | 3.78e7 | 3.34e7 | 2.2 | 1.74e7 | 1.46e7
CG10333 | 1 | 3.24e7 | – | – | 1.69e7 | –
GalT1 | 1 | 3.18e7 | 4.25e7 | – | 1.53e7 | 2.12e7
Yod1 | 1 | 5.94e7 | 4.76e7 | – | 3.86e7 | 1.78e7
CG7966 | 1 | 4.05e7 | 4.43e7 | – | 1.58e7 | 1.91e7
CR18275 + CR18166 + CG32817 | 1 | 7.30e7 | 3.63e7 | – | 3.31e7 | 1.78e7
glec | 1 | 4.07e7 | 3.36e7 | – | 6.47e7 | 1.68e7
CG6765 | 1 | 2.71e7 | 3.72e7 | – | 1.38e7 | 1.67e7
l(3)72Dn | 1 | 2.37e7 | 2.84e7 | – | 1.39e7 | 2.25e7
CG17249 | 1 | 3.84e7 | 3.34e7 | – | 1.73e7 | 1.67e7
CanA-14F | 1 | 2.81e7 | 3.15e7 | – | 1.59e7 | 1.46e7
CanA-14F | 2 | 3.97e7 | 3.22e7 | – | 1.92e7 | 1.53e7
Nf-YB | 1 | 4.33e7 | 4.56e7 | – | 1.92e7 | 2.24e7
CG3309 | 1 | 1.97e7 | 3.09e7 | – | 1.04e7 | 1.46e7
wdn | 1 | 3.80e7 | 4.18e7 | – | 1.86e7 | 1.94e7
CG4757 | 1 | 2.29e7 | 2.15e7 | – | 1.20e7 | 1.21e7
CG1792 | 1 | 3.34e7 | 4.55e7 | 2.2 | 1.50e7 | 1.90e7
CG12507 | 1 | 4.26e7 | 2.56e7 | – | 2.16e7 | 1.25e7
CG10802 | 1 | 5.13e7 | 5.01e7 | – | 2.22e7 | 2.24e7
Takl2 | 1 | 4.78e7 | 6.52e7 | – | 2.18e7 | 2.70e7
CG8738 | 1 | 4.35e7 | 4.05e7 | – | 2.14e7 | 1.84e7
Cyp4e2 | 1 | 4.35e7 | 3.71e7 | – | 1.73e7 | 1.64e7
CG16863 | 1 | 4.80e7 | 2.81e7 | – | 2.09e7 | 1.33e7
CG17219 | 1 | 1.84e7 | 1.95e7 | – | 9.68e6 | 9.93e6
CG9040 | 1 | 6.05e7 | 5.07e7 | – | 2.46e7 | 2.04e7
CG13313 | 1 | 3.49e7 | 4.36e7 | – | 1.59e7 | 1.72e7
CG42525 | 1 | 4.05e7 | 3.85e7 | – | 1.77e7 | 1.72e7
CG14969 | 1 | 4.23e7 | 3.05e7 | – | 2.77e7 | 1.49e7
CG11670 | 1 | 2.27e7 | 3.17e7 | – | 1.18e7 | 2.98e7
CG13965 | 1 | 4.71e7 | 4.21e7 | – | 2.40e7 | 1.89e7
Lk | 1 | 5.35e7 | 6.13e7 | – | 2.38e7 | 2.62e7
